Test results: the supplement of paper PMC12889115
The other results are listed elsewhere or left out. These are raw signals, not scaled to a control.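 First-pass screen: polymyxin B was added at a level that permeabilizes the Salmonella outer membrane while sparing the inner membrane. DMSO wells, with and without polymyxin B, defined maximum growth. Because plates differed from one another, each plate's data were ranked separately and the compounds with the lowest OD600 were carried forward as hits.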

Tested on: Salmonella enterica serovar Typhimurium SL1344
Experiment: bacterial growth OD600 after 18 h with compound and polymyxin B; higher = more bacterial growth (less inhibition)
Details: 50 µM, Mueller-Hinton broth

Row | Compound | bacterial growth OD600 (polymyxin B 0.75 µg/mL) | bacterial growth OD600 (polymyxin B 1 µg/mL)
1 | COCC(=O)NC1CC(=O)N(CCc2cccc(Cl)c2)C1 (stereo not drawn) | 0.967 | 
2 | O=C(c1ccsc1)N1CCC(C2CCN(c3ncccn3)CC2)C1 (stereo not drawn) | 0.781 | 
3 | COc1cc([C@@H]2C[C@H]3CN(CCc4ccccc4)C(=O)[C@]34CCCN24)c(Cl)cc1O | 0.013 | 
4 | CCN1CCN(C2(C(=O)NCc3ccon3)Cc3ccccc3C2)CC1 | 0.898 | 
5 | COc1cccc(C(=O)N2CCC3(CCCN(CC4CC4)C3=O)C2)c1 (stereo not drawn) |  | 0.949
6 | CCN1CCCCC1C(=O)NCc1cccnc1Oc1ccc(C)c(F)c1F (stereo not drawn) |  | 0.946
7 | Cn1ccnc1CN1CCCC(CCC(=O)NCc2ccccc2Cl)C1 (stereo not drawn) |  | 1.05
8 | O=C(c1ccccn1)N1CCCC(CCc2ccc(F)c(F)c2)C1 (stereo not drawn) | 0.013 | 
9 | COc1ccc2c(c1)CCc1cnc(-n3ncc(C(=O)NCc4ccc5c(c4)CCCN5C)c3C)nc1-2 | 0.64 | 
10 | O=C(Nc1cccc(-c2cc3ccccc3[nH]2)c1)C1CCCN(C(=O)C2CC2)C1 (stereo not drawn) |  | 0.839
11 | c1ccc(-c2noc(CN(CC3CCC3)CC3CCCO3)n2)nc1 (stereo not drawn) |  | 0.802
12 | COc1ccc2c(c1)C=C(CN1CCC(CO)(Cc3ccccc3Cl)CC1)CO2 |  | 0.044
13 | c1ccc(OCc2noc(-c3ccc(NCC4CCCO4)nc3)n2)cc1 (stereo not drawn) |  | 0.74
14 | Cc1cc(C(=O)N2CCC(C3CCN(Cc4cccnc4)CC3)C2)nn1C (stereo not drawn) | 0.841 | 
15 | COc1cc(C)ccc1OCc1cc(C(=O)N2CCNC(=O)C2)no1 |  | 0.381
16 | CC(C)=CC(=O)N1CCCC(Nc2ccc(F)cc2)C1 (stereo not drawn) |  | 0.93
17 | Cc1cc(C)n(-c2ccc(NC(=O)C3CCN(C(=O)CCc4cnccn4)CC3)cc2)n1 |  | 0.854

Look-ups from the list:
For bacterial growth OD600 (polymyxin B 1 µg/mL), `COc1ccc2c(c1)C=C(CN1CCC(CO)(Cc3ccccc3Cl)CC1)CO2` is listed with 0.044
For bacterial growth OD600 (polymyxin B 1 µg/mL), `COc1cccc(C(=O)N2CCC3(CCCN(CC4CC4)C3=O)C2)c1` (stereo not drawn) is listed with 0.949

(more compounds)

Row | Compound | bacterial growth OD600 (polymyxin B 0.75 µg/mL) | bacterial growth OD600 (polymyxin B 1 µg/mL)
18 | CC(=O)N1CCC(N2CCCC(CCc3ccccc3F)C2)CC1 (stereo not drawn) | 0.86 | 
19 | COc1ccc(NC(=O)CCC2CCCN(C(=O)CCN3CCCO3)C2)cc1Cl (stereo not drawn) |  | 0.831
20 | O=C(CCC1CCN(C(=O)c2ccc(F)cc2Cl)CC1)NCc1cccnc1 |  | 0.961
21 | COCCN1CCC(CN(C)c2nc3nonc3nc2NC2CCCC2)CC1 |  | 0.903
22 | C=CCC(O)(CC=C)CNC(=O)C1CC(Cc2ccccc2Cl)=NO1 (stereo not drawn) | 0.793 | 
23 | COc1ccc(C(=O)N2CCOC(CCCC(C)C)C2)o1 (stereo not drawn) |  | 0.868
24 | CC(Cc1cccnc1)N1CCN(c2nc(-c3ccccc3)nc3c2CCC3)CC1 (stereo not drawn) |  | 0.029
25 | CC(C)(C)NC(=O)C1CCCN(C2CCN(c3nc4ccccc4o3)CC2)C1 (stereo not drawn) | 0.75 | 
26 | O=C(c1cc(COc2cccc(C(F)(F)F)c2)on1)N1CCCC(CCCO)C1 (stereo not drawn) |  | 0.818
27 | O=C(c1c(F)cccc1F)N1CCCC(N2CCN(c3ccc(F)cc3)CC2)C1 (stereo not drawn) |  | 0.886
28 | CCC(=O)NC1CCCc2nc(N(C)C)ncc21 (stereo not drawn) |  | 0.771
29 | COCCN(C)c1ccc(-c2nc(-c3cccc(Cl)c3)no2)cn1 | 0.624 | 
30 | CC(=O)N1CCC(C(=O)NCc2cccnc2N(C)C2CCCCC2)CC1 |  | 0.89
31 | COc1cccc(CC(C2CCN(C(=O)c3ccc(F)cc3)CC2)N(C)C(=O)c2ccsc2)c1 (stereo not drawn) | 0.746 | 
32 | O=C(C1CC1)N1CCC(Oc2ccc(C(=O)N3CCC[C@H]3CO)cc2)CC1 |  | 0.877
33 | CCOC(=O)C1(CCOc2ccccc2)CCN(C(=O)NC2CCS(=O)(=O)C2)CC1 (stereo not drawn) |  | 0.974
